Measurements reported in PubChem BioAssay AID743121 (NCATS, 2013)
Purpose: 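Partners whose loss is lethal together with topoisomerase I blockade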 (primary screen). System: MDA-MB-231 cells, a human breast cancer line. Reagents: single siRNA against human genes, 20 nM siRNA (0.8 pmol per well). Duration: 120 h (drug added 48 h after transfection, read 72 h later). Challenge: camptothecin 20 nM (about EC30) for 72 h; vehicle 0.1% DMSO in parallel plates. Detection: 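Cell viability by ATP luminescence (CellTiter-Glo) as % of non-targeting siRNA wells, and the log2 ratio of viability without drug over viability with camptothecin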. Reading the numbers: log2 vehicle/camptothecin viability: higher = stronger sensitisation to camptothecin. Hit rule: 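Active genes have an RSA gene-level p-value below 0.001, computed from the ratios of their separate siRNAs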.
The whole screen tested about 26,000 reagents; shown is a part drawn at random. 167 of all reagents (0.63%) count as active. 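Calls are per gene from RSA p-values that are not deposited; an individual active-marked siRNA can sensitise only weakly.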 The numbers tell different reagents against one gene apart. Further read-outs or replicates are left out here.

gene knocked down	reagent	log2 vehicle/camptothecin viability	activity call
ABCB1	1	-0.132	inactive
ABCB1	2	-0.46	inactive
ABCB1	3	-0.253	inactive
ABCB1	4	-0.0216	inactive
TNFRSF11B	1	0.0797	inactive
TNFRSF11B	2	-0.245	inactive
TNFRSF11B	3	-0.0178	inactive
TNFRSF11B	4	-0.0562	inactive
HTR5A	1	0.00326	inactive
HTR5A	2	-0.218	inactive
HTR5A	3	-0.053	inactive
HTR5A	4	-0.0569	inactive
GPS2	1	-0.492	inactive
GPS2	2	-0.168	inactive
GPS2	3	-0.0447	inactive
GPS2	4	-0.183	inactive
POLK	1	0.0432	inactive
POLK	2	-0.119	inactive
POLK	3	-0.428	inactive
CSF2RB	1	0.213	inactive
CSF2RB	2	-0.181	inactive
CSF2RB	3	-0.379	inactive
CSF2RB	4	0.254	inactive
SPR	1	-0.256	inactive
SPR	2	0.0272	inactive
SPR	3	0.0638	inactive
SPR	4	0.0825	inactive
SLC6A6	1	-0.0419	inactive
SLC6A6	2	0.401	inactive
SLC6A6	3	0.158	inactive
SLC6A6	4	0.372	inactive
S100A13	1	-0.191	inactive
S100A13	2	-0.276	inactive
S100A13	3	-0.407	inactive
S100A13	4	-0.0241	inactive
GSTO1	1	-0.0254	inactive
GSTO1	2	0.17	inactive
GSTO1	3	-0.0318	inactive
SERPIND1	1	0.0317	inactive
SERPIND1	2	-0.276	inactive
SERPIND1	3	-0.643	inactive
SERPIND1	4	-0.233	inactive
ESR1	1	-0.145	inactive
ESR1	2	-0.563	inactive
ESR1	3	-0.00647	inactive
ESR1	4	-0.282	inactive
KIF6	1	-0.271	inactive
KIF6	2	0.275	inactive
KIF6	3	-0.506	inactive
KIF6	4	-0.0151	inactive
HK2	1	-0.334	inactive
HK2	2	-0.419	inactive
HK2	3	-0.0467	inactive
HK2	4	-0.391	inactive
CLEC7A	1	-0.54	inactive
CLEC7A	2	0.0991	inactive
CLEC7A	3	-0.00472	inactive
CLEC7A	4	-0.501	inactive
CD44	1	-0.00378	inactive
CD44	2	-0.123	inactive
CD44	3	0.0465	inactive
CACNA1S	1	0.121	inactive
CACNA1S	2	-0.033	inactive
CACNA1S	3	-0.149	inactive
CACNA1S	4	-0.193	inactive
ADIPOR2	1	0.142	inactive
ADIPOR2	2	0.194	inactive
ADIPOR2	3	-0.15	inactive
ADIPOR2	4	-0.173	inactive

Records above whose gene name begins with A or a:
gene knocked down	reagent	log2 vehicle/camptothecin viability	activity call
ABCB1	1	-0.132	inactive
ABCB1	2	-0.46	inactive
ABCB1	3	-0.253	inactive
ABCB1	4	-0.0216	inactive
ADIPOR2	1	0.142	inactive
ADIPOR2	2	0.194	inactive
ADIPOR2	3	-0.15	inactive
ADIPOR2	4	-0.173	inactive
